The match of structure and compound is tentative.
Molecular target: N-terminally GST-tagged human full length recombinant Mps-1 kinase (Homo sapiens, UniProt P33981)
Assay: Mps-1 kinase assay (TR-FRET)
Assay type: biochemical
Conditions: read-out: Mps1 IC50, 10 μM ATP, 1 μM peptide substrate, 60 min at 22° C.

Amino acid sequences for entries named in this document (tags omitted).
UniProt P33981, whole entry: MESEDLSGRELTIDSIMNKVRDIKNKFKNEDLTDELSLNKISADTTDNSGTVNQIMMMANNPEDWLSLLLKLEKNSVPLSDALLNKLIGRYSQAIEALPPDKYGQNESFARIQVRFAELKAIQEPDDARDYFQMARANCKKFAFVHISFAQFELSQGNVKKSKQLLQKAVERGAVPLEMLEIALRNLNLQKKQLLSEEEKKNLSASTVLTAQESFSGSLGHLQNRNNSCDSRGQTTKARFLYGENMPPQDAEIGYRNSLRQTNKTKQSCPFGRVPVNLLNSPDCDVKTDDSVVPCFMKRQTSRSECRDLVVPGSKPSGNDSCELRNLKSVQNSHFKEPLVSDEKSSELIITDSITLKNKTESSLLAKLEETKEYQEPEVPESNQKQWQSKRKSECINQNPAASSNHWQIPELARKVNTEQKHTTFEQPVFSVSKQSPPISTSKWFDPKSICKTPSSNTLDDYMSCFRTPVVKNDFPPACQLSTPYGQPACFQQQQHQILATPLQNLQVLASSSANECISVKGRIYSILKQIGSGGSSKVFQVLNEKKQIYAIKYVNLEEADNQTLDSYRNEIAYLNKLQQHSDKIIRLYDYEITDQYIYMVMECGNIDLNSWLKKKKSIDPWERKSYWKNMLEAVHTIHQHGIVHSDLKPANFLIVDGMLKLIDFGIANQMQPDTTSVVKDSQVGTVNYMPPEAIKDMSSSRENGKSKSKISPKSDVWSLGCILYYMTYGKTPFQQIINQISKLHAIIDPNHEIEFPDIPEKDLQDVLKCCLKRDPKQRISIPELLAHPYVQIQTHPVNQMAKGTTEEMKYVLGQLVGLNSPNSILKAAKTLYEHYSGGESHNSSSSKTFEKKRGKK

`COc1ccc(Oc2cc(NCCC(F)(F)F)c3ncc(-c4ccc(C(=O)NC5CC5)c(C)c4)n3n2)c(F)c1` gave an IC50 of 0.4 nM.
